From patent US8263385B2, “S-triazine-herbicide-degrading bacteria, product for the bioremediation and method of bioremediation” (priority 2007, dated 2012)
At least one structure is not confirmed: it was looked up by name or label, or the drawing left a doubt.

test system: Pseudomonas sp. strain MHP41; test: Antibiotic sensitivity of strain MHP41; assay type: cell-based

Row | SMILES | sensitivity or resistance of the strain to the antibiotic
1 | CO[C@H]1/C=C/O[C@@]2(C)Oc3c(C)c(O)c4c(O)c(c(/C=N/N5CCN(C)CC5)c(O)c4c3C2=O)NC(=O)/C(C)=C\C=C\[C@H](C)[C@H](O)[C@@H](C)[C@@H](O)[C@@H](C)[C@H](OC(C)=O)[C@@H]1C [rifampicin] | sensitive
2 | NC[C@H]1O[C@H](O[C@H]2[C@H](O)[C@@H](O[C@H]3O[C@H](CO)[C@@H](O)[C@H](N)[C@H]3O)[C@H](N)C[C@@H]2N)[C@H](O)[C@@H](O)[C@@H]1O [kanamycin] | sensitive
3 | CN(C)[C@@H]1C(O)=C(C(N)=O)C(=O)[C@@]2(O)C(O)=C3C(=O)c4c(O)cccc4[C@@](C)(O)[C@H]3C[C@@H]12 [tetracycline] | sensitive
